{"sequences": {"note": "Sequences of proteins named here, by UniProt entry; tags and fusion partners are left off. Residues count along the entry.", "UniProt P40225, residues 22-353": "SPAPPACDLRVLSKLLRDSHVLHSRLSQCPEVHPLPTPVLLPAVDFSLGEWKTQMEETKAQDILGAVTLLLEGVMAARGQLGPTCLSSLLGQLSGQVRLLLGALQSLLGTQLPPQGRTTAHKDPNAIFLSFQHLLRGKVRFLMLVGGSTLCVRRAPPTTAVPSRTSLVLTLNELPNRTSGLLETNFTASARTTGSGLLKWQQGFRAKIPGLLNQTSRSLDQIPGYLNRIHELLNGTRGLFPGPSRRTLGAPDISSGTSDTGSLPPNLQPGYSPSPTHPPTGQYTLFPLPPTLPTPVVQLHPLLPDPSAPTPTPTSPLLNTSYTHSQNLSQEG"}, "source": "paper PMC11665562", "key": {"[1]": {"molecular_target": "T1, MCFD2-FLAG (multiple coagulation factor deficiency 2) (UniProt Q8NI22)", "T1 sequence": "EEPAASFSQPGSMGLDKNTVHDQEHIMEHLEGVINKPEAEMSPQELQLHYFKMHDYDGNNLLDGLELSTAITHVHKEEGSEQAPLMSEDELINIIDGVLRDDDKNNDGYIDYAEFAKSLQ", "test": "co-IP; MCFD2-FLAG overexpressed in HEK293T cells expressing TPO-EGFP, 48 hours after transfection; anti-FLAG M2 magnetic beads then anti-EGFP blot; also GFP-Trap magnetic agarose then anti-FLAG blot"}, "[2]": {"molecular_target": "T2, FLAG-tagged LMAN1 (lectin mannose-binding 1) (UniProt P49257)", "T2 sequence": "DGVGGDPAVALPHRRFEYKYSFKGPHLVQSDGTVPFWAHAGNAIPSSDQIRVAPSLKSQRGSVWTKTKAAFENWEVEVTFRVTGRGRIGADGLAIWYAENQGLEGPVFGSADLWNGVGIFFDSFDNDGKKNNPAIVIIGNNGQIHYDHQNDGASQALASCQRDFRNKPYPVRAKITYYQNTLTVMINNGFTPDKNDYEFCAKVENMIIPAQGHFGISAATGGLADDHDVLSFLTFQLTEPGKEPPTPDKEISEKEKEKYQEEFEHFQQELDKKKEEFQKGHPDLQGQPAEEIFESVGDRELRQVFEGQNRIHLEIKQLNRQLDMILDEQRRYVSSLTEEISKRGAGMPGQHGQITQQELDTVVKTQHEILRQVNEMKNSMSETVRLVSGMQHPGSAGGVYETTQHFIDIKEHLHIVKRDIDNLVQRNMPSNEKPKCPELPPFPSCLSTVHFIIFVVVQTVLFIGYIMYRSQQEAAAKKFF", "test": "co-IP; LMAN1-FLAG and TPO-myc coexpressed in HEK293T; LMAN1 precipitated with anti-FLAG M2 agarose beads; blot with anti-myc"}}, "note": "These are yes or no findings as the source states them, for the method shown. Binding seen in cells or lysates may run through a third protein. Some binding calls cover weakened binding; strength is not graded here. Where a sequence is shown, tags or fusion partners need not be part of it."}
{"substance": "TPO fused to EGFP (from UniProt P40225 22-353)", "values": [{"measurement": "binding", "setting": "[1]", "value": "no binding"}]}
{"substance": "myc-tagged thrombopoietin (TPO) (from UniProt P40225 22-353)", "values": [{"measurement": "binding", "setting": "[2]", "value": "binds"}]}
